The test concerns the target High mobility group box 1 (HMGB1), endogenous (human (endogenous in THP-1)) (UniProt P09429). Kind of test: proximity ligation; Naveniflex MR kit on fixed, permeabilised THP-1 cells, resting or LPS 100 ng/ml overnight; endogenous proteins; mouse anti-HMGB1 (2G7) with a rabbit antibody to the partner; single-antibody and irrelevant IgG controls; dots per cell.

By UniProt entry, the sequences of proteins in these tests, tags left out.
UniProt P09429: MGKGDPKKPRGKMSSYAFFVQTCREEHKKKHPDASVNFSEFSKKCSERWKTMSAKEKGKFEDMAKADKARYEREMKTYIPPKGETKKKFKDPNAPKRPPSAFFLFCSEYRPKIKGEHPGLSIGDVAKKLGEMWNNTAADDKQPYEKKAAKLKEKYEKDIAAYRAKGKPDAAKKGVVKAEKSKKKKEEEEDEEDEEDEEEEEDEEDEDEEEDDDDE
UniProt Q03113: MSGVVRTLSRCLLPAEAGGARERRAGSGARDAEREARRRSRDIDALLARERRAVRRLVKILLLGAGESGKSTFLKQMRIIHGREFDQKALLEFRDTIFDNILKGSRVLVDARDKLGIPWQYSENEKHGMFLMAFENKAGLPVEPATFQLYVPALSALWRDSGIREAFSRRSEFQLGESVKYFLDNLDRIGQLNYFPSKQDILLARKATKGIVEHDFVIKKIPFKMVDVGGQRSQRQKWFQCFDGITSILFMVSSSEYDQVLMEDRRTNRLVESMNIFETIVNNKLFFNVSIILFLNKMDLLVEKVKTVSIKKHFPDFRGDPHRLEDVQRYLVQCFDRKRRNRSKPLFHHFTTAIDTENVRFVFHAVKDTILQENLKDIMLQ
UniProt P04792: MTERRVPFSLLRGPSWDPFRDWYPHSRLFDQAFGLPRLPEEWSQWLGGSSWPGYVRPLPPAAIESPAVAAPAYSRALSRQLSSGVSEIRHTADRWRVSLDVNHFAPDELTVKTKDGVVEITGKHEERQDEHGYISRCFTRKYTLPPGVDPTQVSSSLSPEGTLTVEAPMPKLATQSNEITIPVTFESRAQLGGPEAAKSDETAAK
UniProt Q9BYG3: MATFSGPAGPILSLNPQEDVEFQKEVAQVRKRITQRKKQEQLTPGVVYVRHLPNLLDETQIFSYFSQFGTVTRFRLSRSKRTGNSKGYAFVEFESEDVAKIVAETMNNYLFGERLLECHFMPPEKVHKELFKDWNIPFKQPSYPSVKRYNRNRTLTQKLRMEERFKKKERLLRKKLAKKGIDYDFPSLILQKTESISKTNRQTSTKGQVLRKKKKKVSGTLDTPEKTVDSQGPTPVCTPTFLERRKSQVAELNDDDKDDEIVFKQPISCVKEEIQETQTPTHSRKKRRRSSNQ
UniProt P04150: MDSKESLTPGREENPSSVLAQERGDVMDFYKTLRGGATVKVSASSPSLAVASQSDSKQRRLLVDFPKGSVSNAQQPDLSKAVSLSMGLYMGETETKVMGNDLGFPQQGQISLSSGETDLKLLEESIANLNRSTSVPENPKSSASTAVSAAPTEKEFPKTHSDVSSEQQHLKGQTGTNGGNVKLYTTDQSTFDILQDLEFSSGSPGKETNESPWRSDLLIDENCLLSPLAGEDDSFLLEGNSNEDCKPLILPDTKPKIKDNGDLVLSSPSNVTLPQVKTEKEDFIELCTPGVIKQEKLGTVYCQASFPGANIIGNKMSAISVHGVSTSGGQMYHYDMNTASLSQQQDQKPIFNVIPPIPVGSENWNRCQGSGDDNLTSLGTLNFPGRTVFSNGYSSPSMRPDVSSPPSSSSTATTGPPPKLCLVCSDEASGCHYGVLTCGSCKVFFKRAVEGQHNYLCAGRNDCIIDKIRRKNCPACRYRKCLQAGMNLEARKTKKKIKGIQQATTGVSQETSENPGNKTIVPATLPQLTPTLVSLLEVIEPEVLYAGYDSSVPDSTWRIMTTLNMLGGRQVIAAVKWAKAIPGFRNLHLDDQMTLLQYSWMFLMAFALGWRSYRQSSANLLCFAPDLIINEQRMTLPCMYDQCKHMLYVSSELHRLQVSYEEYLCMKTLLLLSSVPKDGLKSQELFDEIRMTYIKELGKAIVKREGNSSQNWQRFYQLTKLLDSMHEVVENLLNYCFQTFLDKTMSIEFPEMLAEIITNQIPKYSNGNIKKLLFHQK

These are yes or no findings as the source states them, for the method shown. Binding seen in cells or lysates may run through a third protein. Some results given as binding are weak or reduced against the parent protein; the word gives no strength.

For GNA12 (from UniProt Q03113 1-381), the binding entry is recorded as “binds”.

As for HSPB1 (from UniProt P04792 1-205), the binding entry is “binds”.

In the case of NIFK (from UniProt Q9BYG3 1-293), the binding result is recorded as “binds”.

On to “NR3C1 (glucocorticoid receptor) (from UniProt P04150 1-777)”, for which the binding entry is listed as “binds”.

B1: HCLS1 (protein, UniProt P14317 1-486)
chain: MWKSVVGHDVSVSVETQGDDWDTDPDFVNDISEKEQRWGAKTIEGSGRTEHINIHQLRNKVSEEHDVLRKKEMESGPKASHGYGGRFGVERDRMDKSAVGHEYVAEVEKHSSQTDAAKGFGGKYGVERDRADKSAVGFDYKGEVEKHTSQKDYSRGFGGRYGVEKDKWDKAALGYDYKGETEKHESQRDYAKGFGGQYGIQKDRVDKSAVGFNEMEAPTTAYKKTTPIEAASSGTRGLKAKFESMAEEKRKREEEEKAQQVARRQQERKAVTKRSPEAPQPVIAMEEPAVPAPLPKKISSEAWPPVGTPPSSESEPVRTSREHPVPLLPIRQTLPEDNEEPPALPPRTLEGLQVEEEPVYEAEPEPEPEPEPEPENDYEDVEEMDRHEQEDEPEGDYEEVLEPEDSSFSSALAGSSGCPAGAGAGAVALGISAVAVYDYQGEGSDELSFDPDDVITDIEMVDEGWWRGRCHGHFGLFPANYVKLLE
On to B1, for which the binding result was “binds”.

B2: CAT (protein, UniProt P04040 1-527)
chain: MADSRDPASDQMQHWKEQRAAQKADVLTTGAGNPVGDKLNVITVGPRGPLLVQDVVFTDEMAHFDRERIPERVVHAKGAGAFGYFEVTHDITKYSKAKVFEHIGKKTPIAVRFSTVAGESGSADTVRDPRGFAVKFYTEDGNWDLVGNNTPIFFIRDPILFPSFIHSQKRNPQTHLKDPDMVWDFWSLRPESLHQVSFLFSDRGIPDGHRHMNGYGSHTFKLVNANGEAVYCKFHYKTDQGIKNLSVEDAARLSQEDPDYGIRDLFNAIATGKYPSWTFYIQVMTFNQAETFPFNPFDLTKVWPHKDYPLIPVGKLVLNRNPVNYFAEVEQIAFDPSNMPPGIEASPDKMLQGRLFAYPDTHRHRLGPNYLHIPVNCPYRARVANYQRDGPMCMQDNQGGAPNYYPNSFGAPEQQPSALEHSIQYSGEVRRFNTANDDNVTQVRAFYVNVLNEEQRKRLCENIAGHLKDAQIFIQKKAVKNFTEVHPDYGSHIQALLDKYNAEKPKNAIHTFVQSGSHLAAREKANL
For the molecule B2, the binding result is reported as “binds”.

The values are drawn from paper PMC12681554.
